Test results from PubChem BioAssay AID2685 (National Center for Advancing Translational Sciences (NCATS), 2010).
The list shows a part of the results. These are further read-outs of the screen, such as a control signal, another cell line or another target. No call is given for them. Compounds called inactive in the main read-out are mostly missing here. Words in brackets tell the shape of the fitted curve; partial curves, single points and poor fits give uncertain potencies.

Experiment: qHTS Assay for Lipid Storage Modulators in Drosophila S3 Cells;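 on cell number change: cells counted by Cell Tracker Red CMTPX staining in the red channel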
Settings: BODIPY lipid droplet fluorescence, 18-24 h; for cell number change: measured here: cell count max response, cells fed with added oleic acid
Outline: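 Laser-scanning cytometry quantifies lipid droplet accumulation (500–530 nm total intensity; droplet/cell object ratio) in oleic acid-fed (400 uM added) Drosophila S3 cells treated with a concentration series. 20 uM Triacsin C defined 100% inhibition.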

[1] = measured here: cell number channel AC50, cells fed with added oleic acid
[2] = measured here: lipid fluorescence (Fed channel) AC50, cells fed with added oleic acid

| Structure (SMILES) | cell number change [%] | AC50 [1] | AC50 [2] |
| --- | --- | --- | --- |
| CCOc1ccc(CN(C)CC(=O)Nc2cccc(S(=O)(=O)N(C)c3ccccc3)c2)cc1 | 20.6 | 0.517 µM [falling, single point] |  |
| Nc1cccc(CCc2nc3cc4ccccc4cc3[nH]2)c1 | 1.42 |  | 0.0651 µM [rising, full curve, poor fit] |
| CN(C)S(=O)(=O)Oc1ccsc1C(=O)Nc1ccc(Cl)c(Cl)c1 | -33.3 | 13 µM [falling, partial curve, poor fit] | 16.4 µM [falling, partial curve] |
| Cc1cc(C(=O)NCCCN2CCCC2=O)no1 | -12.8 | 0.82 µM [falling, partial curve] | 13 µM [falling, partial curve] |
| CCOC(=O)c1ccc(Nc2cc(C)nc3nc(C)nn23)cc1 | -3.12 |  | 5.8 µM [rising, partial curve] |
| Cc1cccc(C)c1NS(=O)(=O)c1ccc(-c2cnc(C3CC3)o2)cc1 |  |  | 29.1 µM [falling, single point] |
| O=C(COc1ccc(S(=O)(=O)N2CCOCC2)cc1)Nc1cccc([N+](=O)[O-])c1 | -17.1 |  | 35.5 µM [falling, single point] |
| COc1ccc(CCNC2=NCCS2)cc1 | 2.5 |  | 0.13 µM [rising, full curve, poor fit] |
| CN(Cc1ccccc1)c1nc2c(c(=O)[nH]c(=O)n2C)n1CCCc1ccccc1 | -4.15 | 2.59 µM [rising, partial curve] | 3.26 µM [rising, single point] |
| COC(=O)c1ccc2c(=O)n(Cc3ccco3)c(SCC(=O)Nc3ccc(C)c(Cl)c3)nc2c1 |  |  | 0.58 µM [rising, single point] |
| COC(=O)C1=C(C)N(Cc2ccco2)C(=O)/C1=C\c1ccc(N(C)C)cc1 | 2.69 |  | 14.6 µM [rising, partial curve] |
| CCOC(=O)c1ccc(NC(=O)CC2C(=O)N(c3ccc(F)cc3)C(=O)N2CCC(C)C)cc1 (configuration not stated) |  | 1.84 µM [rising, partial curve] | 0.731 µM [rising, single point] |
| COc1ccc(NC(=O)CCSCCc2ccccn2)cc1OC | 15.7 |  |  |
| CC(Sc1nc(N)cc(N)n1)C(=O)Nc1ccc(N2CCOCC2)cc1 (configuration not stated) |  |  | 0.366 µM [falling, partial curve, poor fit] |
| COc1cc2c(cc1OC)CN(CC(=O)Nc1ccc(C)cc1)CC2 | -12 |  |  |
| COc1ccc(-c2nnc(SCC(=O)NCc3cccs3)n2C(C)C)cc1 | -35.2 |  |  |
| O=C(CN1CCN(C/C=C/c2ccccc2)CC1)NCc1ccccc1 |  |  | 1.16 µM [rising, partial curve, poor fit] |
| COc1ccc(CC(=O)OC(C)CN2CCCC2)cc1 (configuration not stated) | -7.6 |  | 2.06 µM [falling, partial curve, poor fit] |
| CN(c1cccnc1)c1ncnc2[nH]ncc12 | 25.1 | 2.59 µM [falling, single point] |  |
| COc1ccc(-c2nn(-c3ccccc3)cc2/C=C2/SC(=S)N(CCC(=O)O)C2=O)cc1 | 53.2 |  |  |

Molecules shown so far that have a halogen:

| Structure (SMILES) | cell number change [%] | AC50 [1] | AC50 [2] |
| --- | --- | --- | --- |
| CN(C)S(=O)(=O)Oc1ccsc1C(=O)Nc1ccc(Cl)c(Cl)c1 | -33.3 | 13 µM [falling, partial curve, poor fit] | 16.4 µM [falling, partial curve] |
| COC(=O)c1ccc2c(=O)n(Cc3ccco3)c(SCC(=O)Nc3ccc(C)c(Cl)c3)nc2c1 |  |  | 0.58 µM [rising, single point] |
| CCOC(=O)c1ccc(NC(=O)CC2C(=O)N(c3ccc(F)cc3)C(=O)N2CCC(C)C)cc1 (configuration not stated) |  | 1.84 µM [rising, partial curve] | 0.731 µM [rising, single point] |

Additional compounds.

| Structure (SMILES) | cell number change [%] | AC50 [1] | AC50 [2] |
| --- | --- | --- | --- |
| Cc1cccc(C)c1Nc1c(-c2ccccn2)nc2ccccn12 | -19.5 |  |  |
| Cn1c2ccsc2c2ncn(Cc3ccccc3F)c(=O)c21 | 36.6 | 16.4 µM [rising, single point] | 29.1 µM [rising, single point] |
| CN(Cc1nccn1C)C(=O)CC1C(=O)NCCN1CC(c1ccccc1)c1ccccc1 (configuration not stated) | -21.3 |  | 29.1 µM [falling, single point] |
| CC(NC(=O)c1cc(=O)[nH]c2ccccc12)c1ccccc1 (configuration not stated) | 2.82 |  | 1.16 µM [falling, partial curve] |
| CCC(NC(=O)CCc1c(C)c2cc3c4c(oc3cc2oc1=O)CCCC4)C(=O)O (configuration not stated) | 19.7 |  |  |
| COc1ccc(NC(=O)N2CCC(n3cnc4ccccc43)CC2)cc1 | -22.2 |  | 20.6 µM [falling, single point] |
| Cn1nnnc1SCc1csc(Nc2ccccc2)n1 | 4.07 |  | 0.731 µM [rising, full curve, poor fit] |
| CC(=O)C(Sc1ccc2nnc(-c3ccc(F)cc3)n2n1)C(C)=O | 36.9 | 8.2 µM [rising, single point] |  |
| O=C(OCCOCCN=C1NS(=O)(=O)c2ccccc21)C1CC(=O)N(c2ccccc2)C1 (configuration not stated) |  |  | 20.6 µM [falling, single point] |
| Cc1nn(CC(=O)Nc2ccc(Br)cc2F)c(=O)c2cccn12 | 14.5 |  | 0.58 µM [rising, single point] |
| CCC(CC)C(=O)N=C1SC2CS(=O)(=O)CC2N1CCc1ccc(OC)c(OC)c1 (configuration not stated) | 26.8 |  | 20.6 µM [rising, partial curve] |
| COc1ccc(NC(=O)CN2CCC3(O)CCCCC3C2c2cc(OC)ccc2OC)cc1 (configuration not stated) | -6.63 |  | 29.1 µM [rising, single point] |
| COc1cc(C(Nc2ccccn2)c2c(NC(=O)c3ccco3)sc(C)c2C)cc(OC)c1OC (configuration not stated) | -1.57 |  | 13 µM [rising, single point] |
| COc1ccc(CNC(=O)COC(=O)c2cccc(S(=O)(=O)N3CCOCC3)c2)cc1 | 6.88 |  | 14.6 µM [rising, partial curve, poor fit] |
| CCOc1ccc(/C(O)=C2/C(=O)C(=O)N(CC3CCCO3)C2c2cccs2)cc1 (configuration not stated) | -31.5 | 32.6 µM [falling, partial curve, poor fit] | 0.184 µM [falling, full curve, poor fit] |
| O=c1cc(C(F)(F)F)nc(-c2cccnc2)[nH]1 | 7.58 |  | 0.13 µM [falling, full curve, poor fit] |
| O=C(c1ccc(Br)cc1)c1cc(-c2ccccn2)c(N2CCOCC2)s1 | 15.4 |  | 0.164 µM [rising, full curve] |
| Cc1cc(NC(=O)Nc2ccccc2)n(-c2ccccc2)n1 | -19.5 |  | 23.1 µM [falling, partial curve] |
| Cc1ccc(S(=O)(=O)NC(CC(=O)NCC2CCCO2)c2ccco2)cc1 (configuration not stated) | -0.94 |  | 20.6 µM [falling, partial curve] |
